Measured values as given in PMC5452337.
No constants are given. Whether binding was seen depends on the method and setting. In cells and extracts the contact can be indirect. Some binding calls cover weakened binding; strength is not graded here.

Amino acid sequences for entries named in this document (tags omitted). Residues count along the entry.
UniProt Q9Z0U4, residues 20-960: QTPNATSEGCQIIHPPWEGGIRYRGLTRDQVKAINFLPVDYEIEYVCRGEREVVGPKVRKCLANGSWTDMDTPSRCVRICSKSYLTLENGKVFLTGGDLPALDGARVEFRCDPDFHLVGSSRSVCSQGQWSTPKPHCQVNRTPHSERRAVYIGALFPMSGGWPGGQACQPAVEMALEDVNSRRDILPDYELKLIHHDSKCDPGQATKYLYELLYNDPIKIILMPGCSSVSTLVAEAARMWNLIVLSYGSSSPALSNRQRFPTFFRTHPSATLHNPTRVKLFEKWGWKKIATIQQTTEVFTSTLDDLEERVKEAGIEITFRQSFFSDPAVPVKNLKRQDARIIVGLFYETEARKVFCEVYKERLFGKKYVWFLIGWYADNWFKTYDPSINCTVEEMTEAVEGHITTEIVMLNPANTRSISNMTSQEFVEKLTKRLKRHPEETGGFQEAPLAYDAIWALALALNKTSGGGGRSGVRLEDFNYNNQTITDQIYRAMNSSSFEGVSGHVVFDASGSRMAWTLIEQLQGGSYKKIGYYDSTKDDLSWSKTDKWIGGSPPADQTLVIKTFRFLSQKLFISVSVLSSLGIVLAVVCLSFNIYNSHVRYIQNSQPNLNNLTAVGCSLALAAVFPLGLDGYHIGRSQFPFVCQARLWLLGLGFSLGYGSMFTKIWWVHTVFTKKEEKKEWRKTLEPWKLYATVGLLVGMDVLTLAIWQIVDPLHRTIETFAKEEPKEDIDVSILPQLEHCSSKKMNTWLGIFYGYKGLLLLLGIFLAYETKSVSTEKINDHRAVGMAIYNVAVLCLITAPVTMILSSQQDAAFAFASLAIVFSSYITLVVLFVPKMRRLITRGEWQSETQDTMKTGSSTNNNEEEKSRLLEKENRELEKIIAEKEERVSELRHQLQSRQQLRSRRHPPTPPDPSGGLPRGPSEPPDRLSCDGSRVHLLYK

T1: potassium-chloride cotransporter KCC2 (rat (endogenous in organotypic hippocampal slices)) (UniProt Q63633)
T1 sequence: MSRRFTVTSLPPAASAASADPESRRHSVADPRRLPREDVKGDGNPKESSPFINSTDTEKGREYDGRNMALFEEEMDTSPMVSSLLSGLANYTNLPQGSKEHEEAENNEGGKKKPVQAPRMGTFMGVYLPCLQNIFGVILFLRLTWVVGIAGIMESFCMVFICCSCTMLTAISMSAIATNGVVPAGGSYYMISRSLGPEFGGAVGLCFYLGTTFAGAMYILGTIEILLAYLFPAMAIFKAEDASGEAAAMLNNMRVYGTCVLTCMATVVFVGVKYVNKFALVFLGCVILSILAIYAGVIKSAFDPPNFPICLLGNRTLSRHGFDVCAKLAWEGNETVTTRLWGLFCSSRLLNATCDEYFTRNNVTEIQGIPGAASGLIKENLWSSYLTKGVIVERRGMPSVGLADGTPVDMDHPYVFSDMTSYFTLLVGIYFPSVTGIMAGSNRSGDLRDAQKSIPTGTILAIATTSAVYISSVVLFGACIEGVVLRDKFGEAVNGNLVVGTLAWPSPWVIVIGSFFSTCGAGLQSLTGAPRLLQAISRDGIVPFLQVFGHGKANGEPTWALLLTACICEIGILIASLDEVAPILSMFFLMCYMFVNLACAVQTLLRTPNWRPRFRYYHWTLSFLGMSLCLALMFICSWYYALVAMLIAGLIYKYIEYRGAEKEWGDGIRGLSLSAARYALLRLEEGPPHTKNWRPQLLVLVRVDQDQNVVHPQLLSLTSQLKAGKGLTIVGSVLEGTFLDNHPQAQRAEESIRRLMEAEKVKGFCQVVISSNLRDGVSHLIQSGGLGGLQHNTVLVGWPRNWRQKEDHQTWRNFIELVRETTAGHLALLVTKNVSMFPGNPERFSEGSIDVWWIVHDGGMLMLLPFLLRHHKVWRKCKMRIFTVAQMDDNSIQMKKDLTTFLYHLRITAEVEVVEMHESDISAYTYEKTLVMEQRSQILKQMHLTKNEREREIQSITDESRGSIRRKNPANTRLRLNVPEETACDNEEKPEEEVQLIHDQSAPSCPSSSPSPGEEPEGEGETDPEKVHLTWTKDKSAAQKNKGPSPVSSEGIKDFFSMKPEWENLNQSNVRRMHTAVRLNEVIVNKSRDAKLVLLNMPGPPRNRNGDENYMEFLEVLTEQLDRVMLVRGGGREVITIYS

B1: potassium-chloride cotransporter KCC2 (protein, UniProt Q63633 1-1139)
chain: T1 sequence

Tests used:
[1] = biological target: T1, potassium-chloride cotransporter KCC2 (rat (endogenous in organotypic hippocampal slices)); experiment: co-IP; lysates of rat organotypic hippocampal slices in CHAPS buffer (50 mM Tris pH 7.5, 150 mM NaCl, 5 mM EDTA, 0.5% CHAPS); precipitation with anti-GABABR1 or anti-KCC2, Protein A/G agarose, immunoblot; IgG controls; also slices treated with SKF97541 (amount of KCC2 in GABABR1 complexes not changed)
[2] = biological target: GABAB receptor subunit 1, splice isoform GABABR1a (rat (endogenous in organotypic hippocampal slices)) (UniProt Q9Z0U4); experiment: as above

Row | Molecule | binding [1] | binding [2]
1 | GABAB receptor subunit 1, splice isoform GABABR1a (from UniProt Q9Z0U4 20-960) | binds | –
2 | B1 | – | binds
